Test results as given in the supplement of paper PMC8728848.
The other results are listed elsewhere or left out.

How the values were obtained:
Experiment in all cases: glycan array binding signal (z-score within array); higher = stronger binding
Settings in all cases: glycan notation: IUPAC condensed, linker removed
[1] = target: Fuc(a1-3)[Gal3S(b1-4)]GlcNAc6S
Procedure, shortened: (§1)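 The binding signal is a Z-score computed within each array and averaged over linkers. Arrays of the same protein sequence at different concentrations or buffers were also averaged together. Data originate from 3228 arrays in the Consortium for Functional Glycomics database, kept only where the protein sequence was available.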

[2] = target: Fuc(a1-3)[GalNAc(b1-4)]GlcNAc
Procedure, shortened: as §1

[3] = target: Fuc(a1-3)[GalNAc(b1-4)]GlcNAc6S
Procedure, shortened: as §1

Fuc(a1-4)GlcNAc = target: Fuc(a1-4)GlcNAc
Procedure, shortened: as §1

Fuc(b1-3)GlcNAc = target: Fuc(b1-3)GlcNAc
Procedure, shortened: as §1

Gal(a1-2)Gal = target: Gal(a1-2)Gal
Procedure, shortened: as §1

Gal(a1-3)Gal = target: Gal(a1-3)Gal
Procedure, shortened: as §1

Gal(a1-3)Gal(b1-3)GlcNAc = target: Gal(a1-3)Gal(b1-3)GlcNAc
Procedure, shortened: as §1

[4] = target: Gal(a1-3)Gal(b1-3)GlcNAc(b1-2)Man
Procedure, shortened: as §1

[5] = target: Gal(a1-3)Gal(b1-3)GlcNAc(b1-2)Man(a1-3)[Gal(a1-3)Gal(b1-3)GlcNAc(b1-2)Man(a1-6)]Man(b1-4)GlcNAc(b1-4)GlcNAc
Procedure, shortened: as §1

[6] = target: Gal(a1-3)Gal(b1-3)GlcNAc(b1-3)GalNAc
Procedure, shortened: as §1

[7] = target: Gal(a1-3)Gal(b1-3)GlcNAc(b1-6)GalNAc
Procedure, shortened: as §1

[8] = target: Gal(a1-3)Gal(b1-3)[Fuc(a1-4)]GlcNAc(b1-2)Man(a1-3)[Gal(a1-3)Gal(b1-3)[Fuc(a1-4)]GlcNAc(b1-2)Man(a1-6)]Man(b1-4)GlcNAc(b1-4)GlcNAc
Procedure, shortened: as §1

Gal(a1-3)Gal(b1-4)Glc = target: Gal(a1-3)Gal(b1-4)Glc
Procedure, shortened: as §1

Gal(a1-3)Gal(b1-4)GlcNAc = target: Gal(a1-3)Gal(b1-4)GlcNAc
Procedure, shortened: as §1

[9] = target: Gal(a1-3)Gal(b1-4)GlcNAc(b1-2)Man
Procedure, shortened: as §1

[10] = target: Gal(a1-3)Gal(b1-4)GlcNAc(b1-2)Man(a1-3)[Gal(a1-3)Gal(b1-4)GlcNAc(b1-2)Man(a1-6)]Man(b1-4)GlcNAc(b1-4)GlcNAc
Procedure, shortened: as §1

[11] = target: Gal(a1-3)Gal(b1-4)GlcNAc(b1-3)GalNAc
Procedure, shortened: as §1

[12] = target: Gal(a1-3)Gal(b1-4)GlcNAc(b1-6)GalNAc
Procedure, shortened: as §1

[13] = target: Gal(a1-3)Gal(b1-4)[Fuc(a1-3)]GlcNAc
Procedure, shortened: as §1

[14] = target: Gal(a1-3)Gal(b1-4)[Fuc(a1-3)]GlcNAc(b1-2)Man(a1-3)[Gal(a1-3)Gal(b1-4)[Fuc(a1-3)]GlcNAc(b1-2)Man(a1-6)]Man(b1-4)GlcNAc(b1-4)GlcNAc
Procedure, shortened: as §1

Gal(a1-3)GalNAc = target: Gal(a1-3)GalNAc
Procedure, shortened: as §1

[15] = target: Gal(a1-3)[Gal(a1-4)]Gal(b1-4)GlcNAc
Procedure, shortened: as §1

[16] = target: Gal(a1-4)Gal(b1-3)GlcNAc(b1-2)Man(a1-3)[Gal(a1-4)Gal(b1-3)GlcNAc(b1-2)Man(a1-6)]Man(b1-4)GlcNAc(b1-4)GlcNAc
Procedure, shortened: as §1

Gal(a1-4)Gal(b1-4)Glc = target: Gal(a1-4)Gal(b1-4)Glc
Procedure, shortened: as §1

Gal(a1-4)Gal(b1-4)GlcNAc = target: Gal(a1-4)Gal(b1-4)GlcNAc
Procedure, shortened: as §1

[17] = target: Gal(a1-4)Gal(b1-4)GlcNAc(b1-2)Man(a1-3)[Gal(a1-4)Gal(b1-4)GlcNAc(b1-2)Man(a1-6)]Man(b1-4)GlcNAc(b1-4)GlcNAc
Procedure, shortened: as §1

[18] = target: Gal(a1-4)Gal(b1-4)GlcNAc(b1-3)Gal(b1-4)Glc
Procedure, shortened: as §1

Gal(a1-4)GlcNAc = target: Gal(a1-4)GlcNAc
Procedure, shortened: as §1

Gal(a1-6)Glc = target: Gal(a1-6)Glc
Procedure, shortened: as §1

Gal(b1-2)Gal = target: Gal(b1-2)Gal
Procedure, shortened: as §1

Gal(b1-3)Gal = target: Gal(b1-3)Gal
Procedure, shortened: as §1

Gal(b1-3)Gal(b1-4)GlcNAc = target: Gal(b1-3)Gal(b1-4)GlcNAc
Procedure, shortened: as §1

Gal(b1-3)GalNAc = target: Gal(b1-3)GalNAc
Procedure, shortened: as §1

[19] = target: Gal(b1-3)GalNAc(a1-3)[Fuc(a1-2)]Gal(b1-4)Glc
Procedure, shortened: as §1

[20] = target: Gal(b1-3)GalNAc(a1-3)[Fuc(a1-2)]Gal(b1-4)GlcNAc
Procedure, shortened: as §1

Gal(b1-3)GalNAc(b1-3)Gal = target: Gal(b1-3)GalNAc(b1-3)Gal
Procedure, shortened: as §1

[21] = target: Gal(b1-3)GalNAc(b1-3)Gal(a1-4)Gal(b1-4)Glc
Procedure, shortened: as §1

[22] = target: Gal(b1-3)GalNAc(b1-4)Gal(b1-4)Glc
Procedure, shortened: as §1

[23] = target: Gal(b1-3)GalNAc(b1-4)[Neu5Ac(a2-3)]Gal(b1-4)Glc
Procedure, shortened: as §1

Gal(b1-3)GlcNAc = target: Gal(b1-3)GlcNAc
Procedure, shortened: as §1

[24] = target: Gal(b1-3)GlcNAc(a1-3)Gal(b1-4)GlcNAc
Procedure, shortened: as §1

[25] = target: Gal(b1-3)GlcNAc(a1-6)Gal(b1-4)GlcNAc
Procedure, shortened: as §1

Gal(b1-3)GlcNAc(b1-2)Man = target: Gal(b1-3)GlcNAc(b1-2)Man
Procedure, shortened: as §1

[26] = target: Gal(b1-3)GlcNAc(b1-2)Man(a1-3)[Gal(b1-3)GlcNAc(b1-2)Man(a1-6)]Man(b1-4)GlcNAc(b1-4)GlcNAc
Procedure, shortened: as §1

B1: Mincle (Bos taurus) (protein)
chain: MNSSTSPASQTERRCFSFQLFSWAIAGTSILLLSACFITRCVVTYSIFQLCDEKKFQPPGDSMELSCYNDGSGSVKNCCPLKWFHFQSSCYLFSPDTMSWRASLKNCSSMGAHLVVINTQEEQEFLYYTKPRKKEFYIGLTDQVTEGQWQWVDGTPFTKSLSFWDAGEPNNLVIVEDCATIRDSSNPRQNWNDVPCFFNMFRVCEMPERKI
[1]
  glycan array binding signal (z-score): -0.116
[2]
  glycan array binding signal (z-score): -0.092
[3]
  glycan array binding signal (z-score): -0.987
Fuc(a1-4)GlcNAc
  glycan array binding signal (z-score): 0.939
Fuc(b1-3)GlcNAc
  glycan array binding signal (z-score): 0.624
Gal(a1-2)Gal
  glycan array binding signal (z-score): -0.042
Gal(a1-3)Gal
  glycan array binding signal (z-score): 0.655
Gal(a1-3)Gal(b1-3)GlcNAc
  glycan array binding signal (z-score): -0.405
[4]
  glycan array binding signal (z-score): 0.294
[5]
  glycan array binding signal (z-score): 1.32
[6]
  glycan array binding signal (z-score): 0.019
[7]
  glycan array binding signal (z-score): -0.514
[8]
  glycan array binding signal (z-score): 1.26
Gal(a1-3)Gal(b1-4)Glc
  glycan array binding signal (z-score): 0.058
Gal(a1-3)Gal(b1-4)GlcNAc
  glycan array binding signal (z-score): 1.19
[9]
  glycan array binding signal (z-score): 0.954
[10]
  glycan array binding signal (z-score): -0.011
[11]
  glycan array binding signal (z-score): -0.713
[12]
  glycan array binding signal (z-score): -0.547
[13]
  glycan array binding signal (z-score): -0.559
[14]
  glycan array binding signal (z-score): 1.7
Gal(a1-3)GalNAc
  glycan array binding signal (z-score): -0.806
[15]
  glycan array binding signal (z-score): 0.608
[16]
  glycan array binding signal (z-score): 0.009
Gal(a1-4)Gal(b1-4)Glc
  glycan array binding signal (z-score): -0.565
Gal(a1-4)Gal(b1-4)GlcNAc
  glycan array binding signal (z-score): -0.633
[17]
  glycan array binding signal (z-score): 0.919
[18]
  glycan array binding signal (z-score): -0.763
Gal(a1-4)GlcNAc
  glycan array binding signal (z-score): -0.878
Gal(a1-6)Glc
  glycan array binding signal (z-score): -0.584
Gal(b1-2)Gal
  glycan array binding signal (z-score): -0.325
Gal(b1-3)Gal
  glycan array binding signal (z-score): -0.063
Gal(b1-3)Gal(b1-4)GlcNAc
  glycan array binding signal (z-score): -0.462
Gal(b1-3)GalNAc
  glycan array binding signal (z-score): -0.37
[19]
  glycan array binding signal (z-score): -0.069
[20]
  glycan array binding signal (z-score): -0.936
Gal(b1-3)GalNAc(b1-3)Gal
  glycan array binding signal (z-score): -0.104
[21]
  glycan array binding signal (z-score): 0.036
[22]
  glycan array binding signal (z-score): -0.247
[23]
  glycan array binding signal (z-score): -0.836
Gal(b1-3)GlcNAc
  glycan array binding signal (z-score): -0.316
[24]
  glycan array binding signal (z-score): 0.206
[25]
  glycan array binding signal (z-score): -1.05
Gal(b1-3)GlcNAc(b1-2)Man
  glycan array binding signal (z-score): 0.665
[26]
  glycan array binding signal (z-score): 1.51
